Assay results taken from PubChem BioAssay AID1688 (National Center for Advancing Translational Sciences (NCATS), 2009).
The whole screen tested about 220,000 compounds, of which about 2,400 (1.1%) were called active. The shares of active, inactive and inconclusive entries below differ from those in the screen. Calls follow the shape of the dose curve; as a rule, active = well fitted inhibition curve with a large enough effect; inconclusive = small, poorly fitted or top-dose-only effect, or effect the other way; inactive = no such curve, though single readings can be large or run the other way. Where the call is inconclusive, the potency comes from a doubtful curve fit.

Test: qHTS Multiplex Assay to Identify Dual Action Probes in a Cell Model of Huntington: Aggregate Formation (GFP); also: nearly all actives have a fitted effect of over 60% in size
Conditions: PC12 HttQ103-GFP aggregates, Acumen cytometry, 40 h; activity change, negative = inhibition: at 46.1 µM (top of the series) unless noted
Procedure, shortened: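 Using laser scanning cytometry, GFP-positive aggregates were counted after lysis of PC12 cells induced with 100 nM tebufenozide to express HTT exon 1 Q103–GFP. Compounds were tested in titration.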
% is scaled to controls: 0 for no effect and ±100 for the full control effect; potency is read from the fitted curve at half-maximal effect.

Row | SMILES | activity change, negative = inhibition | Potency
1 | O=C1CCC([N+](=O)[O-])C(c2cccc([N+](=O)[O-])c2)N1 (stereo not given) | inactive: -8.91% | 
2 | CCN(CC)c1ccc(/C=N/Nc2nc(C)cc(=O)[nH]2)c(O)c1 |  | inconclusive: 1 µM [inhibitor, full curve]
3 | CSc1nc(C)cc(C)c1S(=O)(=O)c1ccccc1C |  | inconclusive: 3.16 µM [activator, partial curve]
4 | CCN(CC)S(=O)(=O)c1cccc(-c2nnc(SCC(=O)c3cc(C)n(C4CC4)c3C)o2)c1 | inactive: -19.7% | 
5 | CCOc1ccc(NC(=O)C(c2ccccn2)N(C(=O)CCl)c2ccc(F)cc2)cc1 (stereo not given) | inactive: 3.37% | 
6 | COc1ccc(C2SCC(=O)N2CC23CC4CC(CC(C4)C2)C3)cc1 (stereo not given) |  | inconclusive: 8.91 µM [inhibitor, partial curve]
7 | CCCc1cc(-c2n[nH]c(=S)n2C(C)c2ccccc2)cs1 (stereo not given) |  | inconclusive: 0.562 µM [inhibitor, full curve, poor fit]
8 | O=S(=O)(c1cnc(Cl)c(Cl)c1)N1CCCc2ccccc21 | inactive: 0.174% | 
9 | CN(C)CCCNC(=O)c1ccc(-c2nc(-c3ccc(Cl)cc3)cs2)cc1 |  | inconclusive: 35.5 µM [inhibitor, single point]
10 | COc1ccc(C2SCCN2C(=S)Nc2cccc(Cl)c2)cc1 (stereo not given) |  | inconclusive: 31.6 µM [inhibitor, single point]
11 | COc1ccc(S(=O)(=O)N2CCCN(CC(=O)Nc3ccc(OC)c(Cl)c3)CC2)cc1 | inactive: -5.31% | 
12 | CN1/C(=C/C=N/NC(=O)c2ccc([N+](=O)[O-])cc2)C(C)(C)c2ccccc21 |  | inconclusive: 11.2 µM [inhibitor, partial curve]
13 | O=C(C1CCC1)N1CCc2cc(S(=O)(=O)NCC3COc4ccccc4O3)ccc21 (stereo not given) |  | inconclusive: 35.5 µM [inhibitor, single point]
14 | O=C1OC(OC(=O)c2cccnc2Nc2cccc(C(F)(F)F)c2)c2ccccc21 (stereo not given) | inactive: 20.4% | 
15 | O=C(/C=C/c1ccccc1)NC(=S)Nc1ccc(N2CCOCC2)cc1 | inactive: 23% | 
16 | CC1(C)CC(=O)C(C=Nc2ccc3c(c2)OCO3)=C(O)C1 |  | inconclusive: 14.1 µM [activator, single point]
17 | Cc1noc(NC(=O)c2ccc(F)cc2)c1C#N |  | inconclusive: 25.1 µM [inhibitor, single point]
18 | Cc1c(Br)c(C(F)(F)F)nn1CC(=O)NCc1ccco1 |  | inconclusive: 5.62 µM [inhibitor, single point]
19 | O=[N+]([O-])c1ccc(-c2nc3ccc([N+](=O)[O-])cc3[nH]2)cc1 |  | active: 17.8 µM
20 | COc1ccc(C(=O)CSc2ccc(-c3ccco3)nn2)cc1 | inactive: -7.04% | 
21 | CS(=O)(=O)N(CC(O)Cn1c2ccccc2c2ccccc21)c1cccc2ccccc12 (stereo not given) |  | inconclusive: 35.5 µM [inhibitor, single point]
22 | CCn1c(=S)ccc2ccc(OC)cc21 | inactive: 1.38% | 
23 | O=C(Nc1ncc2c(n1)-c1ccccc1CC2)c1cccc(Cl)c1 |  | inconclusive: 17.8 µM [inhibitor, partial curve, poor fit]
24 | Cc1cc(C)cc(NS(=O)(=O)c2ccc3c(c2)c(=O)n(C)c(=O)n3C)c1 |  | active: 8.91 µM
25 | Cc1cc(=O)oc2cc(OCC(=O)OCC(=O)NC(C)C)ccc12 |  | inconclusive: 0.501 µM [activator, full curve, poor fit]

Row | SMILES | activity change, negative = inhibition | Potency
26 | CCN(CC)S(=O)(=O)c1ccc(C(=O)Nc2cccc(C)c2)cc1 |  | inconclusive: 17.8 µM [inhibitor, single point]
27 | FC(F)(F)c1nc(N2CCCC2)ncc1-c1nnnn1-c1ccc(Cl)cc1 |  | inconclusive: 1.78 µM [inhibitor, partial curve]
28 | CCSC1=NC(C)(C)C=C(/C=C/c2ccc(Cl)cc2Cl)N1 |  | inconclusive: 35.5 µM [inhibitor, single point]
29 | NC(=O)[C@H](Cc1cc2ccccc2s1)NC(=O)[C@@H]1CC2(CC(c3cccc(NC(=O)[C@@H]4CCC(=O)N4)c3)=NO2)CN1C(=O)c1ccccc1 (stereo not given in full) |  | inconclusive: 35.5 µM [activator, partial curve]
30 | Cc1csc(SCc2nnc(-c3ccccc3Br)o2)n1 |  | inconclusive: 25.1 µM [inhibitor, single point]
31 | CCc1ccc(Nc2ncccc2C#N)cc1 | inactive: 0.761% | 
32 | NS(=O)(=O)c1ccc(CCNC(=O)CSc2cccs2)cc1 |  | inconclusive: 3.98 µM [inhibitor, single point]
33 | C=CCn1c(SCC(=O)NCCCC(=O)OCC)nc2scc(-c3ccco3)c2c1=O | inactive: 25.8% | 
34 | CSc1nc(-c2ccco2)nn1C(=O)c1cccs1 | inactive: 3.52% | 
35 | N#Cc1ccc(/C=C/C(=O)c2ccccc2)cc1 | inactive: -8.13% [at 9.22 µM] | 
36 | N[C@@H](CSCCCO)C(=O)O | inactive: 4.56% | 
37 | O=C1OC(NC(=O)c2ccccc2)C(n2cc(CO)nn2)=C1Cl (stereo not given) | inactive: 19.8% | 
38 | COc1cccc(/C=N/NC(=O)Cn2nc(C)c([N+](=O)[O-])c2C)c1O |  | active: 2.82 µM
39 | CN1CCN(C(CNS(=O)(=O)c2ccc(F)cc2)c2cccnc2)CC1 (stereo not given) | inactive: -1.7% | 
40 | NCc1ccccc1COc1ccccc1 | inactive: -0.451% | 
41 | CCN(CC)C(=O)c1sc(NC(=O)c2c(OC)cccc2OC)c(C#N)c1C | inactive: 2.22% | 
42 | COc1cc2ccccc2cc1C(=O)Nc1ccc(Cc2ccncc2)cc1 |  | active: 10 µM
43 | CCOC(=O)c1cc2c(=O)n3ccccc3nc2n(Cc2ccco2)c1=NC(=O)c1cccc(OC)c1 |  | inconclusive: 35.5 µM [inhibitor, single point]
44 | CCN1c2ccccc2-c2nc3ccccc3n2C1c1cccs1 (stereo not given) |  | inconclusive: 17.8 µM [inhibitor, single point]
45 | CC(C)(C(=O)Nc1nccs1)c1ccccc1 | inactive: -2.83% | 
46 | CN(C)c1ccc(N2CN=C3SCC(=O)N3C2)cc1 |  | inconclusive: 31.6 µM [inhibitor, single point]
47 | COc1ccc(OC)c(-n2c(=S)[nH]c3cc(C(=O)N4CCN(c5ccccc5)CC4)ccc3c2=O)c1 |  | inconclusive: 4.47 µM [activator, single point]
48 | Cc1cccc2c1NC(=O)C2(c1ccc(O)cc1)c1ccc(O)cc1 |  | inconclusive: 7.94 µM [activator, partial curve]
49 | CCOC(=O)c1nnn(-c2nonc2N)c1CSc1ccccn1 | inactive: 4.06% | 
50 | CC(C)N1C(=O)c2ccccc2C1C(=O)NC1CCCCCC1 (stereo not given) |  | inconclusive: 2.82 µM [activator, partial curve]

Row | SMILES | activity change, negative = inhibition | Potency
51 | O=[N+]([O-])c1ccc(Nc2nc(N/N=C\c3ccc4c(c3)OCO4)nc(N3CCCCC3)n2)cc1 |  | inconclusive: 35.5 µM [inhibitor, single point]
52 | CC(=O)c1c(C)[nH]c(C(=O)NCCN2CCC(C)CC2)c1C |  | inconclusive: 0.794 µM [inhibitor, single point]
53 | Brc1ccc2oc3c(N4CCOCC4)ncnc3c2c1 | inactive: 10.4% [at 9.22 µM] | 
54 | O=C(COC(=O)C(O)C(O)C(=O)OCC(=O)c1ccc(C(F)(F)F)cc1)c1ccc(C(F)(F)F)cc1 (stereo not given) | inactive: -11.4% [at 9.22 µM] | 
55 | O=C(Nc1ccc(-c2cn3ccccc3n2)cc1)c1cccs1 |  | inconclusive: 35.5 µM [activator, single point]
56 | O=c1c2ccccc2nc(SCCN2CCOCC2)n1CCc1ccccc1 | inactive: 1.94% [at 9.22 µM] | 
57 | COC(=O)c1ccc(OC(=O)CCc2cc(OC)c(OC)c(OC)c2)cc1 | inactive: -7.05% | 
58 | Cc1cc(NC(=O)CN2CCOCC2)n(-c2nc3ccccc3s2)n1 | inactive: 3.85% | 
59 | Cc1cccc(/C=C2\CS/C(=C\c3cccc(C)c3)C2=O)c1 |  | inconclusive: 0.631 µM [inhibitor, full curve]
60 | Cc1ccc2nc(N3C(=O)C(O)=C(C(=O)c4ccco4)C3c3cccs3)sc2c1 (stereo not given) | inactive: -8.33% | 
61 | Brc1ccc2ncnc(NCc3ccco3)c2c1 |  | active: 8.91 µM
62 | CCCn1c(/C=N/Nc2nc3ccccc3[nH]2)nc2ccccc21 |  | active: 15.8 µM
63 | Cc1nn(-c2ccccc2)c2c1C1(C(=O)N3c4c(cccc41)C(C)CC3(C)C)C(C#N)=C(N)O2 (stereo not given) |  | inconclusive: 3.55 µM [activator, single point]
64 | Cc1ccc(NC(=S)Nc2ccc3cn[nH]c3c2)cc1C | inactive: -26.7% | 
65 | Cn1c(=O)[nH]c(=O)c2c1nc([N+](=O)[O-])n2Cc1ccccc1 |  | inconclusive: 3.16 µM [inhibitor, single point]
66 | Cc1ccccc1-c1nnc(SCc2ccccc2)o1 | inactive: 5.02% | 
67 | O=c1cc(-c2ccccc2Cl)oc2c([N+](=O)[O-])c(O)cc(O)c12 |  | active: 1.78 µM
68 | CCOC(=O)C1=C(C)NC2=C(C(=O)c3ccccc32)C1c1cccc2ccccc12 (stereo not given) | inactive: 4.04% [at 9.22 µM] | 
69 | O=C(N/N=C/c1cccc([N+](=O)[O-])c1O)c1cccs1 |  | active: 15.8 µM
70 | Cc1nc2c(C(=O)NCCC3=CCCCC3)c[nH]n2c(=O)c1Cl |  | inconclusive: 35.5 µM [activator, single point]
71 | Oc1ccc2c(c1)oc1cc(O)ccc12 |  | inconclusive: 2.82 µM [activator, partial curve]
72 | Cc1ccc(-c2nnc(N3CCN(C(=O)CSc4ncn[nH]4)CC3)c3ccccc23)cc1 |  | inconclusive: 35.5 µM [inhibitor, partial curve]
73 | Cc1cc(CNC(=O)COc2cc(F)ccc2[N+](=O)[O-])c2ccccc2n1 |  | inconclusive: 14.1 µM [inhibitor, partial curve, poor fit]
74 | CCOC(=O)c1c(NC(=O)C(Sc2ccccc2)c2ccccc2)sc(C(=O)N(C)C)c1C (stereo not given) |  | inconclusive: 35.5 µM [inhibitor, single point]
75 | CCN1C(=O)C2C(C1=O)N1C(c3cccs3)C3C(=O)N(CC)C(=O)C3N1C2c1cccs1 (stereo not given) |  | active: 28.2 µM

Rewritten in markdown: entries from further up.

| Row | SMILES | activity change, negative = inhibition | Potency |
| --- | --- | --- | --- |
| 53 | Brc1ccc2oc3c(N4CCOCC4)ncnc3c2c1 | inactive: 10.4% [at 9.22 µM] |  |
| 58 | Cc1cc(NC(=O)CN2CCOCC2)n(-c2nc3ccccc3s2)n1 | inactive: 3.85% |  |
| 63 | Cc1nn(-c2ccccc2)c2c1C1(C(=O)N3c4c(cccc41)C(C)CC3(C)C)C(C#N)=C(N)O2 (stereo not given) |  | inconclusive: 3.55 µM [activator, single point] |
| 69 | O=C(N/N=C/c1cccc([N+](=O)[O-])c1O)c1cccs1 |  | active: 15.8 µM |
| 74 | CCOC(=O)c1c(NC(=O)C(Sc2ccccc2)c2ccccc2)sc(C(=O)N(C)C)c1C (stereo not given) |  | inconclusive: 35.5 µM [inhibitor, single point] |
| 75 | CCN1C(=O)C2C(C1=O)N1C(c3cccs3)C3C(=O)N(CC)C(=O)C3N1C2c1cccs1 (stereo not given) |  | active: 28.2 µM |
